The text below walks through data of the supplement of paper PMC12067093, “Discovery and optimisation of a covalent ligand for TRIM25 and its application to targeted protein ubiquitination” (Chemical Science, 2025).

Chains of the proteins cited; added tags and fusions are not shown. Lines headed by an entry give the natural chain unless they say otherwise; changes in a name come on top.
UniProt O60216: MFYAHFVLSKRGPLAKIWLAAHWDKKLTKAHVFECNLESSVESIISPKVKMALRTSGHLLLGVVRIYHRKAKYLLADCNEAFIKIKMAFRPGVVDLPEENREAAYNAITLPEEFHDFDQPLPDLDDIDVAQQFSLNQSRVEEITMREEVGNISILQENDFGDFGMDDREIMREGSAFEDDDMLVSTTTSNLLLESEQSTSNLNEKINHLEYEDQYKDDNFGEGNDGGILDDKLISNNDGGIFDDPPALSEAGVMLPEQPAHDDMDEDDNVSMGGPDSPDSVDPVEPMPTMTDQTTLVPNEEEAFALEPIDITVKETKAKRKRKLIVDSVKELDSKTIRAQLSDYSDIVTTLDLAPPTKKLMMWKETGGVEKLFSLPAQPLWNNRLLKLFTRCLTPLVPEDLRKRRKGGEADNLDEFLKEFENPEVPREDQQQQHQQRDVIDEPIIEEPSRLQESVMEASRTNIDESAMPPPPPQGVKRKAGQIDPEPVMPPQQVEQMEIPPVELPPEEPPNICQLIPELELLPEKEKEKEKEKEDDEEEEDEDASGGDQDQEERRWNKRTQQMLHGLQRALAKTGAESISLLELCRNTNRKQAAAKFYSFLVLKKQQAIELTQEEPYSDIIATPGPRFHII
UniProt Q2KHR3: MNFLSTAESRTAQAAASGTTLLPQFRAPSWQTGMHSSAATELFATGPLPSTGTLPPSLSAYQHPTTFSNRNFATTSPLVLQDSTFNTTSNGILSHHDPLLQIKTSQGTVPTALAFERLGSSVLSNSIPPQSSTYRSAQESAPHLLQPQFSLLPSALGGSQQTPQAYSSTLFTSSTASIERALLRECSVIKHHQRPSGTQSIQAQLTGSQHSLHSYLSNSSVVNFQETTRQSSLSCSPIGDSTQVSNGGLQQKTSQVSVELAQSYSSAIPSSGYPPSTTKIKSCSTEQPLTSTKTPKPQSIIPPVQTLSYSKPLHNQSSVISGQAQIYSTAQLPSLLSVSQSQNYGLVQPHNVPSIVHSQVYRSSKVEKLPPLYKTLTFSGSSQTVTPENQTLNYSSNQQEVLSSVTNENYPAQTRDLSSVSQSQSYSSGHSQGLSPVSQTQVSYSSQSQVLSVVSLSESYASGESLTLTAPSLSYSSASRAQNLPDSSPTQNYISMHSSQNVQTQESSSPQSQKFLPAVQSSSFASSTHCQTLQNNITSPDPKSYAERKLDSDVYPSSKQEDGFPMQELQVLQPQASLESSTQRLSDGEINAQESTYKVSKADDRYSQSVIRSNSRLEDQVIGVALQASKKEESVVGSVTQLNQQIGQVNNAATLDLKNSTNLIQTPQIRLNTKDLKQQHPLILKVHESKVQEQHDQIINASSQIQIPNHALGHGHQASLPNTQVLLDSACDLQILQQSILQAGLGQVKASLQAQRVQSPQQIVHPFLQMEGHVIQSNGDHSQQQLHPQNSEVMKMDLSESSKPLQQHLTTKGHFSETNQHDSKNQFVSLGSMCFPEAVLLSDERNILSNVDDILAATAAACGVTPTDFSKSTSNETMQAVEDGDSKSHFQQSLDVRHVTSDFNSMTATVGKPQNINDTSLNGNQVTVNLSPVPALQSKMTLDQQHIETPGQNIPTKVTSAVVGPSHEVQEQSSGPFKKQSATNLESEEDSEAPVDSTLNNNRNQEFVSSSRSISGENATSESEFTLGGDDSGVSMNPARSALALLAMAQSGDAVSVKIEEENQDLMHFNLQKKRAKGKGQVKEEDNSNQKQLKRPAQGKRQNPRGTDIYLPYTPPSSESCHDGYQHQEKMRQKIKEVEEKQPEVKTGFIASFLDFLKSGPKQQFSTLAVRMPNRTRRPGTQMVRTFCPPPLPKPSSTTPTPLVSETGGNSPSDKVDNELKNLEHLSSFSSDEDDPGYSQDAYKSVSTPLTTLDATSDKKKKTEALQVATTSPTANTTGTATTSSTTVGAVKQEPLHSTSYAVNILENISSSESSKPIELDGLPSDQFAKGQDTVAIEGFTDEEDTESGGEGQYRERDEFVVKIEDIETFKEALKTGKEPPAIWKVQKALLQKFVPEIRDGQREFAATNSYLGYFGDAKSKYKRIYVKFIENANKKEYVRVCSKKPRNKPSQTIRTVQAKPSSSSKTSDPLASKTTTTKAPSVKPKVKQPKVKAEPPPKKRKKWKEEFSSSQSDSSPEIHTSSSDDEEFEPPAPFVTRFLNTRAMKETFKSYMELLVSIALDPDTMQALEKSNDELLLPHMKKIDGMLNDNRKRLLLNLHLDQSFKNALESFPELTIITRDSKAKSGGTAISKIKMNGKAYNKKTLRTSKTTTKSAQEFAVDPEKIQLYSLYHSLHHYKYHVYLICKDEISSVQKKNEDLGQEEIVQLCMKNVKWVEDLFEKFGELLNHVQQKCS
UniProt Q9H974: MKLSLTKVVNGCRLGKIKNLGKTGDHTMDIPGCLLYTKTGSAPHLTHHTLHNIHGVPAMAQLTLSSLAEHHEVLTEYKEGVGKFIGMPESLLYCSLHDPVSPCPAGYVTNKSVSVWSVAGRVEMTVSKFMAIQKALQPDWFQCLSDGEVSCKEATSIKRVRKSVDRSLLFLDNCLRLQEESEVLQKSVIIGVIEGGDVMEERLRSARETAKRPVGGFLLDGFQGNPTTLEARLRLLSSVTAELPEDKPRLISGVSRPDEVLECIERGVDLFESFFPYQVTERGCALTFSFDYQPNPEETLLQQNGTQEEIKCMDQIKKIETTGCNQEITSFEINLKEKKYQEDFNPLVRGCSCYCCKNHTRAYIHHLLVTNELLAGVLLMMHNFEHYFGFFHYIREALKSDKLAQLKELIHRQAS
UniProt Q3MIT2: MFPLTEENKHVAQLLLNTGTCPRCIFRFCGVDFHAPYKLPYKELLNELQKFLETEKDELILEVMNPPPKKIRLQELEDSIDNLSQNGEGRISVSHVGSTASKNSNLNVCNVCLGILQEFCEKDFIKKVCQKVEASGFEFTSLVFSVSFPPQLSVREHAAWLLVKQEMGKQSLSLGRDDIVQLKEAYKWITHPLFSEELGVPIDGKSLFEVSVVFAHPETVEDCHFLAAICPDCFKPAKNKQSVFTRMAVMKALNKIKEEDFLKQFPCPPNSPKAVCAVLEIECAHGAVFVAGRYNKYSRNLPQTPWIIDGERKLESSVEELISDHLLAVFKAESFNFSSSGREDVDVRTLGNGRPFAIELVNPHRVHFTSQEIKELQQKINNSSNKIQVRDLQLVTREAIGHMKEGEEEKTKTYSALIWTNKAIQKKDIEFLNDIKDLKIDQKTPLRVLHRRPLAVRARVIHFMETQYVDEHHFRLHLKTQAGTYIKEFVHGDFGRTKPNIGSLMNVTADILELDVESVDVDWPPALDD
UniProt O15315: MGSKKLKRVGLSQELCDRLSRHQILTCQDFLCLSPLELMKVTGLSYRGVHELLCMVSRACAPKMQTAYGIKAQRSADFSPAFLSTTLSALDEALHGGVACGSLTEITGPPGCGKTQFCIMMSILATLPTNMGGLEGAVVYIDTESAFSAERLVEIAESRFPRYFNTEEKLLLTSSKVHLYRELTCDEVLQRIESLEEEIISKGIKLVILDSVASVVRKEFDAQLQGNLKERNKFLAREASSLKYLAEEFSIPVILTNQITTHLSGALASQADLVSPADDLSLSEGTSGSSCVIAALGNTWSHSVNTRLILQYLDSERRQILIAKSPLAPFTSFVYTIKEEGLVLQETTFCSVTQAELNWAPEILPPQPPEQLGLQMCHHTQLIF
UniProt Q9H0R6: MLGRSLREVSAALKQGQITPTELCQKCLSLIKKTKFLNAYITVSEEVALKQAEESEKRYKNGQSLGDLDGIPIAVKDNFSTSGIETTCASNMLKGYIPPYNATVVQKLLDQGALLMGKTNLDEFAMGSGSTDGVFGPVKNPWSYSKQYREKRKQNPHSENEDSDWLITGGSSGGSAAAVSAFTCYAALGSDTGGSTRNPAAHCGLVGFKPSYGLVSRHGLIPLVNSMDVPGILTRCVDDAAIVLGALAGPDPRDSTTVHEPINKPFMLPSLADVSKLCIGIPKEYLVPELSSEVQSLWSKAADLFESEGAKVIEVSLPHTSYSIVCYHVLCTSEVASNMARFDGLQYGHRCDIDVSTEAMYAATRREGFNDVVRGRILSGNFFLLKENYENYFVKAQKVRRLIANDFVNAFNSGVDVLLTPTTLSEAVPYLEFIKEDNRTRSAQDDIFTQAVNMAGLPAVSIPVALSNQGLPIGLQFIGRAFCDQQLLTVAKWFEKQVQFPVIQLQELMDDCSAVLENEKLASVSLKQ
UniProt P47224: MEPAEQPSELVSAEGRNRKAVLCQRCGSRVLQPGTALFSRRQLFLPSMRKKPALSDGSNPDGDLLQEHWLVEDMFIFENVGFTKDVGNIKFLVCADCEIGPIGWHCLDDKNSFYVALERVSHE
UniProt Q9H2M9: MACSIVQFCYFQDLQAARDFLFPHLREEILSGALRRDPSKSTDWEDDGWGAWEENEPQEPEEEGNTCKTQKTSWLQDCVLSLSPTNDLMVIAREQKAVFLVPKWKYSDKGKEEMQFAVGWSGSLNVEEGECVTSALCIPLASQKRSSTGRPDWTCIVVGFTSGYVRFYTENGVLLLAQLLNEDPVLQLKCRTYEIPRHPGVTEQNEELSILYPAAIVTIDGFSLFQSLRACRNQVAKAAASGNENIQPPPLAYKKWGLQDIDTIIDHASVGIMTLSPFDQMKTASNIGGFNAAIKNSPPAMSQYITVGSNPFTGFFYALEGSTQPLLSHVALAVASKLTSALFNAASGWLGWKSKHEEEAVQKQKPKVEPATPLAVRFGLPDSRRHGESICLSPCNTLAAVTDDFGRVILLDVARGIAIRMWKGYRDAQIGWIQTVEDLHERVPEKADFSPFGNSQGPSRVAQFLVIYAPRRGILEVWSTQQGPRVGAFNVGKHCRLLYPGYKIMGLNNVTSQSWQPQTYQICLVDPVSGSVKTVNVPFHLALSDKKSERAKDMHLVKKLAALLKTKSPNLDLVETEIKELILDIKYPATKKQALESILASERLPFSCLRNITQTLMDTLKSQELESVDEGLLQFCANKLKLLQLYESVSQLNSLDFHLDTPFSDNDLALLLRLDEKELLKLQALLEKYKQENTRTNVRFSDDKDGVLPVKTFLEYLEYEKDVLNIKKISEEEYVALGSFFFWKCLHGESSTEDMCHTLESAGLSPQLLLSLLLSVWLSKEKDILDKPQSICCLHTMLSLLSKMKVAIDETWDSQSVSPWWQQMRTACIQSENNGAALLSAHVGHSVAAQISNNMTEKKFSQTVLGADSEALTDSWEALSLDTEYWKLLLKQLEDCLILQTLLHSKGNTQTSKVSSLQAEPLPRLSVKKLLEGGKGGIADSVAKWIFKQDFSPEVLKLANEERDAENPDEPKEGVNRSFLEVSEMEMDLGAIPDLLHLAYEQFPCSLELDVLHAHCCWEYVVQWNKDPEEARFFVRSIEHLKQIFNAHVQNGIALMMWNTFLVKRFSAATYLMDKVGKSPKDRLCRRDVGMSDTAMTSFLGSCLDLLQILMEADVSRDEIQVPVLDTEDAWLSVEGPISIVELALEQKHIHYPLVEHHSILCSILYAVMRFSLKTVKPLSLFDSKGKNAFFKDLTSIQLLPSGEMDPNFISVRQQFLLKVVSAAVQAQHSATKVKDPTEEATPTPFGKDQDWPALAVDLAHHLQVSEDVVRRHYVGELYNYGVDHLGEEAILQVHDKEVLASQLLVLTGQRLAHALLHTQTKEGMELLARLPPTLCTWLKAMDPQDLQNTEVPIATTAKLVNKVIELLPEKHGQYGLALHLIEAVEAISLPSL

Some of the results follow.
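Also: competitive chemoproteomic profiling in live THP-1 cells with an iodoacetamide desthiobiotin (IA-DTB) probe, comparing probe-labelled peptide intensities in compound-treated cells against DMSO-treated controls.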

Compound in one experiment: CC1Cc2ccccc2N1C(=O)C1CCCN(C1)C(=O)CCl (mixture of isomers) [TRIM25 ligand 11 (diastereomer mixture)]
Description: probe-labelled cysteine peptide fold change vs DMSO (competition) (log2 fold change); higher = less target engagement (more negative = stronger competition). As to conditions: 10 µM; THP-1; incubation time: 4 h.
Regarding “RAB3GAP1_Q15042_272_LPFGACEDPISELHLATTWPHLTEGIIVDNDVYSDLDPIQAPHWSVR (UniProt Q15042)”, the “probe-labelled cysteine peptide fold change” value turned out to be 0.306.
“RAD50_Q92878_133_CAEIDR (UniProt Q92878)”: the “probe-labelled cysteine peptide fold change” value turned out to be 0.183.
Take “RABGAP1L_Q5R372_665_NNFEDLHCK (UniProt Q5R372)”: the “probe-labelled cysteine peptide fold change” value is 0.206.
On to “QSOX1_O00391_393_KVNWIGCQGSEPHFR (UniProt O00391)”, for which the “probe-labelled cysteine peptide fold change” value was 0.0834.
Still for that read-out and setting: the figure for “RAD21_O60216_392_CLTPLVPEDLRK (UniProt O60216)” is 0.0356; for “RAB3IL1_Q8TBN0_29_STDPCQGHR (UniProt Q8TBN0)” it is -0.119.
The same measure, in the same setting: the figure for “QSER1_Q2KHR3_1709_KNEDLGQEEIVQLCMK (UniProt Q2KHR3)” is 0.135; for “RAB7A_P51149_83_GADCCVLVFDVTAPNTFK (UniProt P51149)” it is 0.108; for “RAD50_Q92878_325_KLVDCHR (UniProt Q92878)” it is -0.0865.
On the same count and under the same terms, the figure for “QTRT2_Q9H974_263_LISGVSRPDEVLECIER (UniProt Q9H974)” is -0.111; for UniProt Q8N1Y9_Q8N1Y9_79_GCLPGK it is -0.184.
Regarding “PWP2_Q15269_158_CFVVGSK (UniProt Q15269)”, the “probe-labelled cysteine peptide fold change” value was 0.189.
Same read-out and setting: the figure for “PYGB_P11216_446_INMAHLCVIGSHAVNGVAR (UniProt P11216)” is -0.0787.
The same measure, in the same setting: the figure for “RACK1_P63244_249_HLYTLDGGDIINALCFSPNRYWLCAATGPSIK (UniProt P63244)” is -0.43.
Same read-out and setting: the figure for “RABGAP1_Q9Y3P9_230_GHDGTPESDCFAFTESHYNAELFR (UniProt Q9Y3P9)” is 0.0118; for “RABL2A_Q9UBK7_128_EFRPEIPCIVVANK (UniProt Q9UBK7)” it is 0.0337.
Consider “RAB7B_Q96AH8_142_VPQEVAQGWCR (UniProt Q96AH8)”, for which the “probe-labelled cysteine peptide fold change” value was 0.172.
As to “RACK1_P63244_240+249_HLYTLDGGDIINALCFSPNRYWLCAATGPSIK (UniProt P63244)”, the “probe-labelled cysteine peptide fold change” value was -0.547.
The same measure, in the same setting: the figure for “RAB22A_Q9UL26_120_CDLIDVR (UniProt Q9UL26)” is -0.0323; for “RAD50_Q92878_325_LVDCHR (UniProt Q92878)” it is 0.0273; for “RAB3GAP1_Q15042_783_HLLPCVIHAAVLK (UniProt Q15042)” it is -0.107.
Same read-out and setting: the figure for “PUM3_Q15397_371_VAMHCLWHGTPK (UniProt Q15397)” is 0.0661.
On the same count and under the same terms, the figure for “PUS10_Q3MIT2_21_HVAQLLLNTGTCPR (UniProt Q3MIT2)” is -0.158; for “PYGL_P06737_446_RINMAHLCIVGSHAVNGVAK (UniProt P06737)” it is -0.16.
In the case of “RAB10_P61026_124_CDMDDKR (UniProt P61026)”, the “probe-labelled cysteine peptide fold change” value is -0.21.
For “RABGEF1_Q9UJ41_359_DLSIEEQSECAQDFYHNVAER (UniProt Q9UJ41)”, the “probe-labelled cysteine peptide fold change” value is -0.161.
Still for that read-out and setting: the figure for “RAB4B_P61018_23_SCLLHQFIENK (UniProt P61018)” is 0.0769; for “RAB43_Q86YS6_157_SDLSELREVSLAEAQSLAEHYDILCAIETSAK (UniProt Q86YS6)” it is -0.241; for “PYGL_P06737_446_INMAHLCIVGSHAVNGVAK (UniProt P06737)” it is -0.047.
In the case of “RAD51B_O15315_27_HQILTCQDFLCLSPLELMK (UniProt O15315)”, the “probe-labelled cysteine peptide fold change” value is 0.0744.
In the case of “RAC2_P15153_105_HHCPSTPIILVGTK (UniProt P15153)”, the “probe-labelled cysteine peptide fold change” value is -0.029.
Same read-out and setting: the figure for “PWP2_Q15269_647_RFEISCNLSLDAMEEFLNR (UniProt Q15269)” is 0.2; for “QRSL1_Q9H0R6_483_AFCDQQLLTVAK (UniProt Q9H0R6)” it is 0.0551.
Still for that read-out and setting: the figure for RABIF_P47224_23_AVLCQR (UniProt P47224) is -0.0165.
Same read-out and setting: the figure for “RABL3_Q5HYI8_180_TAFLAEDFNPEEINLDCTNPR (UniProt Q5HYI8)” is -0.125; for “RAB3GAP2_Q9H2M9_391_HGESICLSPCNTLAAVTDDFGR (UniProt Q9H2M9)” it is -0.212.

The experiment is the same for the next values; noted with them: 50 µM; THP-1; incubation time: 4 h.
“RAB3GAP1_Q15042_272_LPFGACEDPISELHLATTWPHLTEGIIVDNDVYSDLDPIQAPHWSVR (UniProt Q15042)”: the “probe-labelled cysteine peptide fold change” value was -0.189.
Consider “RAD50_Q92878_133_CAEIDR (UniProt Q92878)”, for which the “probe-labelled cysteine peptide fold change” value is -0.017.
On the same count and under the same terms, the figure for “RABGAP1L_Q5R372_665_NNFEDLHCK (UniProt Q5R372)” is 0.214.
The same measure, in the same setting: the figure for “QSOX1_O00391_393_KVNWIGCQGSEPHFR (UniProt O00391)” is 0.205; for “RAD21_O60216_392_CLTPLVPEDLRK (UniProt O60216)” it is 0.0542; for “RAB3IL1_Q8TBN0_29_STDPCQGHR (UniProt Q8TBN0)” it is -0.315.
The same measure, in the same setting: the figure for “QSER1_Q2KHR3_1709_KNEDLGQEEIVQLCMK (UniProt Q2KHR3)” is -0.0383; for “RAB7A_P51149_83_GADCCVLVFDVTAPNTFK (UniProt P51149)” it is 0.0904; for “RAD50_Q92878_325_KLVDCHR (UniProt Q92878)” it is -0.0476.
With “QTRT2_Q9H974_263_LISGVSRPDEVLECIER (UniProt Q9H974)”, the “probe-labelled cysteine peptide fold change” value was 0.0558.
The same measure, in the same setting: the figure for UniProt Q8N1Y9_Q8N1Y9_79_GCLPGK is 0.0174.
Still for that read-out and setting: the figure for “PWP2_Q15269_158_CFVVGSK (UniProt Q15269)” is 0.0718; for “PYGB_P11216_446_INMAHLCVIGSHAVNGVAR (UniProt P11216)” it is -0.0246.
Consider “RACK1_P63244_249_HLYTLDGGDIINALCFSPNRYWLCAATGPSIK (UniProt P63244)”, for which the “probe-labelled cysteine peptide fold change” value is -0.454.
The same measure, in the same setting: the figure for “RABGAP1_Q9Y3P9_230_GHDGTPESDCFAFTESHYNAELFR (UniProt Q9Y3P9)” is -0.0552; for “RABL2A_Q9UBK7_128_EFRPEIPCIVVANK (UniProt Q9UBK7)” it is 0.0503.
For “RAB7B_Q96AH8_142_VPQEVAQGWCR (UniProt Q96AH8)”, the “probe-labelled cysteine peptide fold change” value is -0.0601.
Same read-out and setting: the figure for “RACK1_P63244_240+249_HLYTLDGGDIINALCFSPNRYWLCAATGPSIK (UniProt P63244)” is -0.346; for “RAB22A_Q9UL26_120_CDLIDVR (UniProt Q9UL26)” it is 0.0334.
The same measure, in the same setting: the figure for “RAD50_Q92878_325_LVDCHR (UniProt Q92878)” is 0.131.
Still for that read-out and setting: the figure for “RAB3GAP1_Q15042_783_HLLPCVIHAAVLK (UniProt Q15042)” is -0.00935; for “PUM3_Q15397_371_VAMHCLWHGTPK (UniProt Q15397)” it is -0.0747; for “PUS10_Q3MIT2_21_HVAQLLLNTGTCPR (UniProt Q3MIT2)” it is 0.113.
For “PYGL_P06737_446_RINMAHLCIVGSHAVNGVAK (UniProt P06737)”, the “probe-labelled cysteine peptide fold change” value stood at 0.02.
Take “RAB10_P61026_124_CDMDDKR (UniProt P61026)”: the “probe-labelled cysteine peptide fold change” value is -0.229.
Same read-out and setting: the figure for “RABGEF1_Q9UJ41_359_DLSIEEQSECAQDFYHNVAER (UniProt Q9UJ41)” is -0.289; for “RAB4B_P61018_23_SCLLHQFIENK (UniProt P61018)” it is -0.0183; for “RAB43_Q86YS6_157_SDLSELREVSLAEAQSLAEHYDILCAIETSAK (UniProt Q86YS6)” it is -0.328.
On to “PYGL_P06737_446_INMAHLCIVGSHAVNGVAK (UniProt P06737)”, for which the “probe-labelled cysteine peptide fold change” value is -0.0335.
Consider “RAD51B_O15315_27_HQILTCQDFLCLSPLELMK (UniProt O15315)”, for which the “probe-labelled cysteine peptide fold change” value amounted to 0.194.
Same read-out and setting: the figure for “RAC2_P15153_105_HHCPSTPIILVGTK (UniProt P15153)” is -0.0965; for “PWP2_Q15269_647_RFEISCNLSLDAMEEFLNR (UniProt Q15269)” it is 0.263; for “QRSL1_Q9H0R6_483_AFCDQQLLTVAK (UniProt Q9H0R6)” it is 0.131.
On the same count and under the same terms, the figure for RABIF_P47224_23_AVLCQR (UniProt P47224) is 0.196; for “RABL3_Q5HYI8_180_TAFLAEDFNPEEINLDCTNPR (UniProt Q5HYI8)” it is -0.104; for “RAB3GAP2_Q9H2M9_391_HGESICLSPCNTLAAVTDDFGR (UniProt Q9H2M9)” it is -0.23.
